Experimental data as given in patent US20190175526A1, “METHODS FOR TREATING CANCER” (Macau University of Science and Technology, priority 2017, published 2019).
For at least one compound, name, drawing or mass did not settle the structure.

Key:
Assay type in all cases: cell-based, human
[1] = system: phosphorylated mTOR; experiment: Western blot of phosphorylated mTOR in A549 cells; details: 24 hours
[2] = system: eIF4E; experiment: Western blot of eIF4E expression in A549 cells; details: 10 μM, 24 hours
[3] = system: FGFR3; experiment: Western blot of FGFR3 expression in A549 cells; details: 10 μM, 24 hours
[4] = system: H3R8me2s; experiment: Western blot of H3R8me2s in A549 cells; details: 24 h treatment, vs untreated
[5] = system: phosphorylated ERK; experiment: Western blot of phosphorylated ERK in A549 cells; details: 24 hours
[6] = system: phosphorylated AKT; experiment: Western blot of phosphorylated AKT in A549 cells; details: 24 hours

O=C1c2ccccc2C(=O)c2c(NCCCN(CCO)CCO)cccc21 [compound 3039-0164]
significantly decreased: level of phosphorylated mTOR [1] | eIF4E protein expression level [2] | FGFR3 protein expression level [3] | H3R8me2s expression [4] | level of phosphorylated ERK [5] | level of phosphorylated AKT [6]
